According to publication PMC8324300:
Results are given in words; binding and its absence hold for the method and conditions named. In cells and extracts the contact can be indirect. Binding can be weak; no strength is given. Sequences can lack the tags named with a protein.

Amino acid sequences for entries named in this document (tags omitted). A change or cut given only in a name is not applied to a line headed by its entry.
UniProt Q8WUX9: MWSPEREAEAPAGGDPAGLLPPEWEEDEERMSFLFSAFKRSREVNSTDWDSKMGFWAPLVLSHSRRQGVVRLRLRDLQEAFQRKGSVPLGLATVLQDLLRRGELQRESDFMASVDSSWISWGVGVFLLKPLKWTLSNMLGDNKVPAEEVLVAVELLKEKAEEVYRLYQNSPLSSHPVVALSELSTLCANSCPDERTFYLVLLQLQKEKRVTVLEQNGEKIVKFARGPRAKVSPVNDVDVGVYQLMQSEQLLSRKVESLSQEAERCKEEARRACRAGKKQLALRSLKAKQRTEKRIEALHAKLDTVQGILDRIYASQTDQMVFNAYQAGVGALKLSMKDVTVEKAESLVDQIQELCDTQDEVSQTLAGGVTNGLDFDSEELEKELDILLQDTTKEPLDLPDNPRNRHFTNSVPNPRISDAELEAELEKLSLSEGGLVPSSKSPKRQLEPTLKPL

Molecular target: GFP-CHMP7 δHelix6 (human) (UniProt Q8WUX9)
Assay: co-IP; GFP-trap capture from 293T cells transiently expressing HA-CHMP4B and GFP-CHMP7 or GFP-CHMP7 δHelix6; blots with anti-GFP and anti-HA

B1: HA-CHMP4B (protein, UniProt Q9H444 1-224)
chain: MSVFGKLFGAGGGKAGKGGPTPQEAIQRLRDTEEMLSKKQEFLEKKIEQELTAAKKHGTKNKRAALQALKRKKRYEKQLAQIDGTLSTIEFQREALENANTNTEVLKNMGYAAKAMKAAHDNMDIDKVDELMQDIADQQELAEEISTAISKPVGFGEEFDEDELMAELEELEQEELDKNLLEISGPETVPLPNVPSIALPSKPAKKKEEEDDDMKELENWAGSM
  binding: binds
